Results from US20050112150A1.
These are yes or no findings as the source states them, for the method shown. Some binding calls cover weakened binding; strength is not graded here.

Target: T1, human corneodesmosine of 52-56 kDa extracted from human epidermis (human) (UniProt Q15517)
T1 sequence (chain, N-glycosylated; phosphorylated on serine (sites not stated)): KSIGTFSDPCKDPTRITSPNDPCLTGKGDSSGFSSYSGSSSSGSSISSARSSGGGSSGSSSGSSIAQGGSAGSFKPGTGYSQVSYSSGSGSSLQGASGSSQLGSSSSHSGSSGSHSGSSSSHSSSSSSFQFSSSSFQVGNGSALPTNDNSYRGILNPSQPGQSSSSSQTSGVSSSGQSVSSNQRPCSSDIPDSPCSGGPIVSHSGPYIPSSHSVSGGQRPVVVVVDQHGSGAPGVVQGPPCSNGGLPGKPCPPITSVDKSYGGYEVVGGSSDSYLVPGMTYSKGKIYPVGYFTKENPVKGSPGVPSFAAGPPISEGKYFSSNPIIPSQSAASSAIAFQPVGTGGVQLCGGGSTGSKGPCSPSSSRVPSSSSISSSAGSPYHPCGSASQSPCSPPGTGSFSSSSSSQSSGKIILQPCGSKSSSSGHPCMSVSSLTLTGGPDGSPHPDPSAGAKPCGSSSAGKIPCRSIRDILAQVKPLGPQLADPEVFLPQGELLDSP
Experiment: lectin blot with biotinylated lectin (1 µg/ml) on affinity-purified corneodesmosine

binding: binds
B1: wheat germ agglutinin (protein, UniProt P10968 27-197, looked up)
chain: QRCGEQGSNMECPNNLCCSQYGYCGMGGDYCGKGCQNGACWTSKRCGSQAGGATCTNNQCCSQYGYCGFGAEYCGAGCQGGPCRADIKCGSQAGGKLCPNNLCCSQWGFCGLGSEFCGGGCQSGACSTDKPCGKDAGGRVCTNNYCCSKWGSCGIGPGYCGAGCQSGGCDG
modifications: biotinylated
